{"source": "PubChem BioAssay AID1259415", "about": "(National Center for Advancing Translational Sciences (NCATS), 2018)", "note": "Among all 410,000 compounds or so, about 18,000 (4.4%) were called active. The inconclusive results got no clear call from the source; some entries with a clear call stand among them for comparison. Cut-off read from the data, not from the text of the source: active = activity change below about -60%; inconclusive = no clear call, values can overlap the other calls; inactive = above about -39%. % is set by controls: 0 for no effect and ±100 for the full control effect."}
{"test": "qHTS Assay for inhibitors of the human cytomegalovirus (HCMV)", "settings": "HFF cells, HCMV-luciferase reporter, 72 h; at 57.5 µM; hits give low values", "summary_of_the_method": "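Luciferase read-out from HCMV-luciferase-infected HFFs (MOI 1 PFU/cell) 72 h post infection at 37C; compounds added after 16 h cell attachment; activity normalized between buffer-only basal and Salinomycin (10uM) inhibitor controls.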"}
{"smiles": "N#Cc1c(NC(=O)c2nc3ncccn3n2)sc2c1CCCCC2", "activity change, negative = inhibition": "inactive: 6.96%"}
{"smiles": "O=C(CN1C(=O)c2ccccc2S1(=O)=O)N1CCc2ccccc21", "activity change, negative = inhibition": "active: -93.9%"}
{"smiles": "CC(C)(C)OC(=O)NCCCCCc1nnc(SCc2ccc(F)cc2)o1", "activity change, negative = inhibition": "active: -66.8%"}
{"smiles": "Cc1oc(-c2cccs2)nc1CN1CCC(C(=O)N2CCCC2)CC1", "activity change, negative = inhibition": "inconclusive: -48%"}
{"smiles": "O=C(O)CCC(=O)N1CCN(S(=O)(=O)c2ccc3ccccc3c2)CC1", "activity change, negative = inhibition": "inconclusive: -50.9%"}
{"smiles": "CC1=C(c2ccc(C)cc2)S(=O)(=O)NC1=NCCCN1CCN(c2cc(C)ccc2C)CC1", "activity change, negative = inhibition": "active: -96.1%"}
{"smiles": "O=S(=O)(Nc1ccc(Br)cc1)c1cccc2cccnc12", "activity change, negative = inhibition": "inconclusive: -40.7%"}
{"smiles": "CC1=C(C(=O)OC2CCCCCC2)C(c2ccc(C)o2)C2=C(CCCC2=O)N1", "note": "(stereo not drawn)", "activity change, negative = inhibition": "inconclusive: -59.1%"}
{"smiles": "Cc1ccc2[nH]c(CN3CCC(CO)(CC4CCCCO4)CC3)c(C)c2c1", "note": "(stereo not drawn)", "activity change, negative = inhibition": "active: -69.9%"}
{"smiles": "N#Cc1ccc(CSc2ccc(S(=O)(=O)N3CCCCCC3)cn2)cc1", "activity change, negative = inhibition": "inconclusive: -45.5%"}
{"smiles": "COc1cccc(-c2csc(NC(=O)Nc3ccccc3)n2)c1", "activity change, negative = inhibition": "inconclusive: -41.9%"}
{"smiles": "CCOC(=O)N1CCN(c2nc(-c3cccs3)nc3ccccc23)CC1", "activity change, negative = inhibition": "inconclusive: -43.4%"}
{"smiles": "Cn1nc(C(=O)NCc2cccc(Cl)c2)c2c1-c1ccccc1SC2", "activity change, negative = inhibition": "inconclusive: -52.6%"}
{"smiles": "COc1ccc(Oc2cccc3c2S(=O)(=O)N(C2CC2)C[C@@H](COCc2ccccc2)O3)cc1", "activity change, negative = inhibition": "inconclusive: -47%"}
{"smiles": "O=C(CNC(=O)c1ccccc1)OCCCOC(=O)CNC(=O)c1ccccc1", "activity change, negative = inhibition": "inactive: -16.2%"}
{"smiles": "Cc1cc(C(C)(C)C)cc(CN2CCN(S(=O)(=O)c3cccs3)CC2)c1O", "activity change, negative = inhibition": "active: -77.4%"}
{"smiles": "O=C(COC(=O)c1cccs1)Nc1ccc(S(=O)(=O)N2CCOCC2)cc1", "activity change, negative = inhibition": "inactive: -12.2%"}
{"smiles": "CN(C)CCN(CC1CCCN(Cc2ccccc2F)C1)C(=O)c1ccc(Cl)cc1", "note": "(stereo not drawn)", "activity change, negative = inhibition": "inactive: -4.19%"}
{"smiles": "N#CCC(=O)Nc1ccc(C(=O)OCC(=O)NCCCc2ccccc2)cc1", "activity change, negative = inhibition": "inconclusive: -40.1%"}
{"smiles": "Cc1nc2ccc(NC(=O)c3cccs3)cc2c(=O)n1Cc1ccc(Cl)cc1", "activity change, negative = inhibition": "active: -98.4%"}
{"smiles": "COc1ccc(NC(=O)CN(C)C(=O)c2ccc(-c3ccccc3Cl)o2)cc1", "activity change, negative = inhibition": "inactive: -8.51%"}
{"smiles": "Cn1c(CNC(=O)C2CCC(=O)N(CCc3cccc(F)c3)C2)nc2ccccc21", "note": "(stereo not drawn)", "activity change, negative = inhibition": "inconclusive: -58%"}
{"smiles": "COc1ccc(NC(=O)Nc2cccc3[nH]c([C@@H]4O[C@H](CO)[C@@H](O)[C@H](O)[C@H]4O)nc23)cc1OC1CCCC1", "activity change, negative = inhibition": "inactive: 31.9%"}
